Values from PubChem BioAssay AID1259264 (Sanger Institute, 2017)
Purpose: 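Kinase-wide knock-down to find genes that strengthen targeted drug effects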 (primary screen). Cell system: CL40 human colorectal cancer cells. Reagents: siRNA pool against human genes. Treatment: DMSO, or an anchor drug: BYL719 at 1 µM, cetuximab at 5 µg/ml, or trametinib at 10 nM. Read-out: 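Viability as a fraction of non-targeting pool control (replicates averaged), control-based robust z-score, plus averaged synergy for each drug: BYL719 1 µM, cetuximab 5 µg/ml, trametinib 10 nM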. Scale: robust z-score, siRNA alone: higher = more viable cells. Call rule: 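a gene counts as essential when knock-down without drug gives a robust z-score below -3, meaning fewer cells; synergy scores play no part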. Calls: active = essential (lowers viability alone); inactive = not essential.
The whole screen tested 794 reagents; shown is a random part of them. 15 of all reagents (1.9%) count as active. 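Calls rest on knock-down alone at z-score below -3; synergy scores with the three drugs do not decide them.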 Further read-outs or replicates are left out here. Not stated in the record: the amount of reagent, the time to read-out.

Which result is listed for NME5 (NME/NM23 family member 5)?
robust z-score, siRNA alone: 0.305; activity call: inactive

Which result is listed for OXSR1 (oxidative stress responsive kinase 1)?
robust z-score, siRNA alone: 0.539; activity call: inactive

What did the screen give for DGKQ (diacylglycerol kinase theta)?
robust z-score, siRNA alone: 0.384; activity call: inactive

For AKAP9 (A-kinase anchoring protein 9), how do the results read?
robust z-score, siRNA alone: 0.539; activity call: inactive

Which result is listed for TSKS (testis specific serine kinase substrate)?
robust z-score, siRNA alone: 0.539; activity call: inactive

For PTPN11 (protein tyrosine phosphatase non-receptor type 11), how do the results read?
robust z-score, siRNA alone: 0.539; activity call: inactive

Which result is listed for DYRK4 (dual specificity tyrosine phosphorylation regulated kinase 4)?
robust z-score, siRNA alone: -0.0226; activity call: inactive

For MAPK12 (mitogen-activated protein kinase 12), what does the deposit list?
robust z-score, siRNA alone: 0.539; activity call: inactive

What is on record for PTK7 (protein tyrosine kinase 7 (inactive))?
robust z-score, siRNA alone: 0.183; activity call: inactive

For LYN (LYN proto-oncogene, Src family tyrosine kinase), how do the results read?
robust z-score, siRNA alone: -0.0986; activity call: inactive

For CAMK1G (calcium/calmodulin dependent protein kinase IG), how do the results read?
robust z-score, siRNA alone: 0.178; activity call: inactive

For ROCK2 (Rho associated coiled-coil containing protein kinase 2), how do the results read?
robust z-score, siRNA alone: 0.157; activity call: inactive
